US12146874B2, “Microtentacle imaging in patient tumor samples” (University of Maryland, Baltimore, priority 2014, dated 2024)
At least one structure is not confirmed: it was looked up by name or label, or the drawing left a doubt.

Test system: patient-derived cells
Test: McTN and stem cell responses of patient-derived cells to drugs (Example 4)
Type: cell-based, human
Conditions: concentration listed in Table 2, 30 minutes, vs vehicle 0.1% DMSO
Procedure: Patient-derived cells are treated with either vehicle (0.1% DMSO) or each of the drugs in Table 2 at the indicated concentration for 30 minutes and then analyzed for McTN incidence.

Structure (SMILES): Cc1nc(Nc2ncc(C(=O)Nc3c(C)cccc3Cl)s2)cc(N2CCN(CCO)CC2)n1 [Dasatinib]
- Predicted stemness & McTN effect: Increase
